Drawing on article PMC9410877, this text covers binding for three substances.

Protein sequences, listed by entry. Tags and fused reporters are not part of them.
UniProt Q3URK3: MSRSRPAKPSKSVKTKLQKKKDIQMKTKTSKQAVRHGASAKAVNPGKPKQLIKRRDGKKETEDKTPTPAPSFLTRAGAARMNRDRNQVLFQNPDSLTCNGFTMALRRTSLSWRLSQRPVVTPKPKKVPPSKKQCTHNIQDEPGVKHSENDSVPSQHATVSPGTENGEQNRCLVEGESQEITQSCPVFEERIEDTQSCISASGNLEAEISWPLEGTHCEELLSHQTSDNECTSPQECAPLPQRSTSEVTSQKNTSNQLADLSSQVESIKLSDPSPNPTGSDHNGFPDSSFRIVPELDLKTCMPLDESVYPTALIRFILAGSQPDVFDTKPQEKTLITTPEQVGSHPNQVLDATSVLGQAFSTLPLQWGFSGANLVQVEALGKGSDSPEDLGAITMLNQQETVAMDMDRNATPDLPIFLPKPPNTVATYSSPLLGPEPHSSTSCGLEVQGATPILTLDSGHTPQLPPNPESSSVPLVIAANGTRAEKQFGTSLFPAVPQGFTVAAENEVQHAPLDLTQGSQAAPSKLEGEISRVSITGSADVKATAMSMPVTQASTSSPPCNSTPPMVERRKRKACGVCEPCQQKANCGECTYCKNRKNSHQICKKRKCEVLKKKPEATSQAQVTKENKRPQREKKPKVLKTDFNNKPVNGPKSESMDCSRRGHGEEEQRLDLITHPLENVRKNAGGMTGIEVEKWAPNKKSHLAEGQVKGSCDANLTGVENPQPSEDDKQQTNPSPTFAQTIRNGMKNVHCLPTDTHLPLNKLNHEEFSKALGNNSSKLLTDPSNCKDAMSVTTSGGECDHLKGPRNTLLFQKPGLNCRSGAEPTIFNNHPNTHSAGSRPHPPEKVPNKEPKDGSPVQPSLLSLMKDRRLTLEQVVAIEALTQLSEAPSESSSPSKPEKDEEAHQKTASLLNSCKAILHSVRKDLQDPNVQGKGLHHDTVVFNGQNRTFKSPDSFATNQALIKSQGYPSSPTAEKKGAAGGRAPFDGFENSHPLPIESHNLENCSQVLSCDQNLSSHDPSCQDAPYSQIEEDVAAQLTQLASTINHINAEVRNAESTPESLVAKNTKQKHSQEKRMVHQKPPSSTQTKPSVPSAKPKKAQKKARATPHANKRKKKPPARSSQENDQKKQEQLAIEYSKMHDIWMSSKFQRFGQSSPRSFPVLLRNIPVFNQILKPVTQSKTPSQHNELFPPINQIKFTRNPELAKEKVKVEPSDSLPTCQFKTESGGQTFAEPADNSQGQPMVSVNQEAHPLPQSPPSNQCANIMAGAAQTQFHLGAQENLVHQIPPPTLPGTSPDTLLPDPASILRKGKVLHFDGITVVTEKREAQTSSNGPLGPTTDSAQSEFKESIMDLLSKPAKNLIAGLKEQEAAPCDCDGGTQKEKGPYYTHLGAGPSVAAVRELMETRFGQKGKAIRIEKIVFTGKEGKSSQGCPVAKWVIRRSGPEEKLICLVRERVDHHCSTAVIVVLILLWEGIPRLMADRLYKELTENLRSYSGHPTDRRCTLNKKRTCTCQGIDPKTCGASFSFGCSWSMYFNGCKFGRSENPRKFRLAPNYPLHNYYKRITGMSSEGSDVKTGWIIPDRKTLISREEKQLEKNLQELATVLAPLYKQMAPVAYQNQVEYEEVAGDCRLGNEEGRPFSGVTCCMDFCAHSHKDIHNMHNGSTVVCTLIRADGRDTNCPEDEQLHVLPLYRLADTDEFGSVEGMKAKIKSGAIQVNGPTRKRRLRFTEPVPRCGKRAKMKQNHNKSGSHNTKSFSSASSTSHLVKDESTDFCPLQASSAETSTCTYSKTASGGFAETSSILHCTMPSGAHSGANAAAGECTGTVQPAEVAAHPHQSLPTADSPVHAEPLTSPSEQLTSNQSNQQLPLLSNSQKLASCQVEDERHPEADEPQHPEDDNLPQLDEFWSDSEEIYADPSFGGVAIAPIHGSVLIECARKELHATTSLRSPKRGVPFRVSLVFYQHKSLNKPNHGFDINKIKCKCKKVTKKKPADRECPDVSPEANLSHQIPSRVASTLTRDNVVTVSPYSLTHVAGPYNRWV
UniProt Q921E6: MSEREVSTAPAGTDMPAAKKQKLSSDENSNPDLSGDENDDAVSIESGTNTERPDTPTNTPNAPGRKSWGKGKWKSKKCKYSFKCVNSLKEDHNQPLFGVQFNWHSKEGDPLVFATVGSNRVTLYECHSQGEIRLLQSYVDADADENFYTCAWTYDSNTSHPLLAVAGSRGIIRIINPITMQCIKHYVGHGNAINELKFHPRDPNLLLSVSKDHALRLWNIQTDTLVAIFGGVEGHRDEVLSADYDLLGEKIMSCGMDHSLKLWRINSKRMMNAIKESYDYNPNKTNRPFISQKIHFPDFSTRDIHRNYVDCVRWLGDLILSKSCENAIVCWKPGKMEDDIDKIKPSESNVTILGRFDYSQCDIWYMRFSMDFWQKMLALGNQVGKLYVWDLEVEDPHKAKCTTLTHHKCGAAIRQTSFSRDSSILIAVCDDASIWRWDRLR
UniProt Q80U70: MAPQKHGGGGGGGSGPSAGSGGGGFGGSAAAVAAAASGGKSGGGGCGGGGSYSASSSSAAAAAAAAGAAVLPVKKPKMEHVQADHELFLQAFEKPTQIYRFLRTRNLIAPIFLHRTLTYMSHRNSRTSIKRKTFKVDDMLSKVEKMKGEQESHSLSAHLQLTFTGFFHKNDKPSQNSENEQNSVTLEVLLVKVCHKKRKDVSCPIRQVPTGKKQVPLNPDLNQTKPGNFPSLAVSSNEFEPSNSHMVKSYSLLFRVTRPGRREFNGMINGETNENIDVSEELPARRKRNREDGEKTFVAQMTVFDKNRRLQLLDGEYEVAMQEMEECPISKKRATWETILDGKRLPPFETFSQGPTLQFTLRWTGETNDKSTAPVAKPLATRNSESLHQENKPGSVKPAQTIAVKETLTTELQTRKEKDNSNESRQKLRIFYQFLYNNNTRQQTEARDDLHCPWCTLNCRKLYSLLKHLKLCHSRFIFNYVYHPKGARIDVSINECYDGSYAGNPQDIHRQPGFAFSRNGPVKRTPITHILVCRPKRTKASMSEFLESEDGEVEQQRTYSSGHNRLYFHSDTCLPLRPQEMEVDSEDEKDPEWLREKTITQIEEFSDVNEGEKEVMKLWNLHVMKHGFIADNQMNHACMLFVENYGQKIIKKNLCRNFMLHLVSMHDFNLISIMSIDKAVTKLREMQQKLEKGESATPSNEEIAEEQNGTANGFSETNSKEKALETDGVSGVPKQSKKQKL
UniProt P83917: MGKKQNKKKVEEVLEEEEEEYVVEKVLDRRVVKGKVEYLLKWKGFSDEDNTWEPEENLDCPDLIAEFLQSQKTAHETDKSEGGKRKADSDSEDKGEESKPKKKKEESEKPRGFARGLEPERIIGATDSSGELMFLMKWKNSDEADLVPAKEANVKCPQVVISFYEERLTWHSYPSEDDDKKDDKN

Results are given in words; binding and its absence hold for the method and conditions named. In cells and extracts the contact can be indirect. These calls come from enrichment with a bait or labelling near it, and not all partners need be listed.

The assay has as its target TET1 (ten-eleven translocation 1) (mouse (endogenous in mESCs)) (UniProt Q3URK3). Put plainly: affinity purification with mass spectrometry; ChIP-MS of TET1: WT and Tet1 KO mESCs (Serum LIF), triplicates, crosslinked with 1% paraformaldehyde, chromatin sheared by sonication (no MNase), anti-TET1 antibody (09-872-I, Sigma-Aldrich) overnight at 4°C, protein A/G beads, two low salt (140 mM NaCl), one high salt (500 mM NaCl) and two TBS washes, on-bead trypsin digestion, LC-MS/MS, MaxLFQ; t-test, FDR 5%, log2 fold change cut-off 1.
On to EED (from UniProt Q921E6 1-441), for which the binding result is reported as “binds”.

On to SUZ12 (from UniProt Q80U70 1-741), for which the binding entry is recorded as “binds”.

Consider “heterochromatin protein 1 (HP1) beta (from UniProt P83917 1-185)”, for which the binding result is reported as “binds”.
